Read-outs that look alike come from different tables or passages of the source. The source gives many values for each of these; only a part stands here.
Type: physicochemical
Conditions: for Dissolution After Cool Down: after heating at 60° C.
Protocol: A 10 mL solution of M4N at a concentration of about 10 mg/mL in 40% BP-β-CD was made as follows. About 10 mL of the 40% HP-β-CD solution were added to a glass beaker containing a stir bar. The beaker was placed on a magnetic plate and the stir bar was set to stir at medium speed. About […] of M4N were slowly added to the 40% HP-β-CD in the center of the beaker with the aid of a spatula. The M4N/40% HP-β-CD mixture was stirred for 2 hr or until all M4N was uniformly suspended without any clumps being present. The M4N/40% HP-β-CD mixture was optionally heated at 80° C. for about 30 min. (or longer if a larger volume of solution was desired, for example, 1 hr at 80° C. for 100 mL of the M4N/HP-β-CD mixture), or longer as needed to ensure complete dissolution of M4N. […] The final M4N/40% HP-β-CD solution was stored at room temperature and was kept protected from light. This process may be scaled up or down to obtain the requisite volume or concentration of M4N. Formulations containing M4N in other cyclodextrin solutions may be similarly made, such as, for example, by substituting HP-β-CD in the process described above with other cyclodextrins. […]
A 10 mL solution of M4N at a concentration of about 10 mg/mL in 50% HP-β-CD/0.5% HPMC was made as follows. About 10 mL of the 50% HP-β-CD/0.5% HPMC solution were added to a glass beaker containing a stir bar. The beaker was placed on a magnetic plate and the stir bar was set to stir at medium speed. About 100 mg of M4N were slowly added to the 50% HP-β-CD/0.5% HPMC in the center of the beaker with the aid of a spatula. The M4N/50% HP-β-CD/0.5% HPMC mixture was stirred for 24 hr or until all M4N was uniformly suspended without any clumps being present. The M4N/50% HP-β-CD/0.5% HPMC mixture was heated at about 90° C. for about 30 min. (or longer if a larger volume of solution was desired, for example, 1 hr at 90° C. for 500 mL of the M4N/50% HP-β-CD/0.5% HPMC mixture), or longer as needed to ensure complete dissolution of M4N. […] The final M4N/50% HP-β-CD/0.5% HPMC solution was stored at room temperature and was kept protected from light.
A 10 mL solution of M4N at a concentration of about 20 mg/mL in 5% EC (w/v) (the “EC formulation”) was made as follows. About 10 mL of 5% EC formulation, made as described above, were added to a glass beaker containing a stir bar. The beaker was placed on a magnetic plate and the stir bar was set to stir at medium speed, and covered with a round Teflon® cover. About 200 mg of M4N were slowly added to the 5% EC formulation in the center of the beaker with the aid of a spatula to prevent M4N from sticking to the beaker wall. The M4N/EC mixture was stirred for 2 hr or until all M4N had dissolved or was uniformly suspended without any clumps being present. The M4N/EC mixture was heated at about 60° C. for about 30 min. (or longer if a larger volume of solution was desired, for example, 1 hr at 60° C. for 500 mL of the M4N/EC mixture), or longer as needed to ensure complete dissolution of M4N. […] The final M4N/EC solution was stored at room temperature and was kept protected from light.
A 10 mL solution of M4N at a concentration of about 50 mg/mL in sesame oil was made as follows. About 10 mL of sesame oil were added to a glass beaker containing a stir bar. The beaker was placed on a magnetic plate and the stir bar was set to stir at medium speed. About 500 mg of M4N were slowly added to the sesame oil in the center of the beaker with the aid of a spatula to prevent M4N from sticking to the beaker wall. The M4N/sesame oil mixture was stirred for about 2 hr or until all M4N had dissolved or was uniformly suspended without any clump being present. The M4N/sesame oil mixture was heated at about 60° C. for about 30 min. (or longer if a larger volume of solution was desired, for example, 1 hr at 60° C. for 500 mL of the M4N/sesame oil mixture), or longer as need to ensure complete dissolution of M4N. […]

[1] = Glycerol Monoleate 100% (w/v), M4N 1.00 mg/ml
[2] = Glycerol Monoleate 100% (w/v), M4N 5.0 mg/ml
[3] = Glycerol Monoleate 100% (w/v), M4N 10.0 mg/ml
[4] = Glycerol Monoleate 100% (w/v), M4N 12.0 mg/ml
[5] = Glycerol Monoleate 100% (w/v), M4N 15.0 mg/ml
[6] = Glycerol Monoleate 100% (w/v), M4N 17.5 mg/ml
[7] = Glycerol Monoleate 100% (w/v), M4N 20.0 mg/ml
[8] = Glycerol Monoleate 100% (w/v), M4N 25.0 mg/ml
[9] = Glycerol Monoleate 100% (w/v), M4N 30.0 mg/ml
[10] = Glycerol Monoleate 100% (w/v), M4N 40.0 mg/ml
[11] = Glycerol Monoleate 100% (w/v), M4N 50.0 mg/ml
[12] = Glycerol Monoleate 100% (w/v), M4N 60.0 mg/ml
[13] = Glycerol Monoleate 100% (w/v), M4N 65.0 mg/ml
[14] = Glycerol Monoleate 100% (w/v), M4N 70.0 mg/ml
[15] = Glycerol Monoleate 100% (w/v), M4N 80.0 mg/ml
[16] = Glycerol Monoleate 100% (w/v), M4N 100.0 mg/ml
[17] = Glycerol Monoleate 100% (w/v), M4N 200.0 mg/ml
[18] = Glycerol Monoleate 100% (w/v), M4N 300.0 mg/ml
[19] = Glycerol Monostearate 15% (w/v) solution in water, M4N 60 mg/mL
Wherever Dissolution After Cool Down is given: key: N represents 'No'; Y represents 'Yes.'.

COc1ccc(C[C@@H](C)[C@@H](C)Cc2ccc(OC)c(OC)c2)cc1OC [Formulation M4N, meso-1,4-bis(3,4-dimethoxyphenyl)-2,3-dimethylbutane]
N at 90 °C: Dissolution After Heating (M4N 1 mg/mL in 1% CMC (High Viscosity), 90° C.) | Dissolution After Heating (M4N 1 mg/mL in 2% MC (Low viscosity), 90° C.) | Dissolution After Heating (M4N 1 mg/mL in 4% CMC (Low Viscosity), 90° C.)
Y at 90 °C: Dissolution After Heating (M4N 1 mg/mL in 50% HP-β-CD, 0.5% HPMC, 90° C.)
Y: Dissolution After Cool Down (Labrafil ® 100%, M4N 60 mg/mL) | Dissolution After Cool Down (Labrasol ® 100%, M4N 50 mg/mL) | Dissolution After Cool Down (Labrasol ® 100%, M4N 60 mg/mL) | Dissolution After Cool Down (Labrasol ® 100%, M4N 70 mg/mL) | Dissolution After Cool Down (Labrasol ® 100%, M4N 80 mg/mL)
Y at 60 °C: Dissolution After Heating (Glycerol Monoleate 100% (w/v), M4N 0.25 mg/ml, heating at 60° C.) | Dissolution After Heating (Glycerol Monoleate 100% (w/v), M4N 1.00 mg/ml, heating at 60° C.) | Dissolution After Heating (Glycerol Monoleate 100% (w/v), M4N 5.0 mg/ml, heating at 60° C.) | Dissolution After Heating (Glycerol Monoleate 100% (w/v), M4N 10.0 mg/ml, heating at 60° C.) | Dissolution After Heating (Glycerol Monoleate 100% (w/v), M4N 12.0 mg/ml, heating at 60° C.) | Dissolution After Heating (Glycerol Monoleate 100% (w/v), M4N 15.0 mg/ml, heating at 60° C.) | Dissolution After Heating (Glycerol Monoleate 100% (w/v), M4N 17.5 mg/ml, heating at 60° C.) | Dissolution After Heating (Glycerol Monoleate 100% (w/v), M4N 20.0 mg/ml, heating at 60° C.) | Dissolution After Heating (Glycerol Monoleate 100% (w/v), M4N 25.0 mg/ml, heating at 60° C.) | Dissolution After Heating (Glycerol Monoleate 100% (w/v), M4N 30.0 mg/ml, heating at 60° C.) | Dissolution After Heating (Glycerol Monoleate 100% (w/v), M4N 40.0 mg/ml, heating at 60° C.) | Dissolution After Heating (Glycerol Monoleate 100% (w/v), M4N 50.0 mg/ml, heating at 60° C.) | Dissolution After Heating (Glycerol Monoleate 100% (w/v), M4N 60.0 mg/ml, heating at 60° C.) | Dissolution After Heating (Glycerol Monoleate 100% (w/v), M4N 65.0 mg/ml, heating at 60° C.) | Dissolution After Heating (Glycerol Monoleate 100% (w/v), M4N 70.0 mg/ml, heating at 60° C.) | Dissolution After Heating (Glycerol Monoleate 100% (w/v), M4N 80.0 mg/ml, heating at 60° C.) | Dissolution After Heating (Glycerol Monoleate 100% (w/v), M4N 100.0 mg/ml, heating at 60° C.) | Dissolution After Heating (Glycerol Monoleate 100% (w/v), M4N 200.0 mg/ml, heating at 60° C.) | Dissolution After Heating (Glycerol Monoleate 100% (w/v), M4N 300.0 mg/ml, heating at 60° C.) | Dissolution After Heating (Labrafil ® 100%, M4N 60 mg/mL, heating at 60° C.) | Dissolution After Heating (Labrafil ® 100%, M4N 200 mg/mL, heating at 60° C.) | Dissolution After Heating (Labrasol ® 100%, M4N 50 mg/mL, heating at 60° C.) | Dissolution After Heating (Labrasol ® 100%, M4N 60 mg/mL, heating at 60° C.) | Dissolution After Heating (Labrasol ® 100%, M4N 70 mg/mL, heating at 60° C.) | Dissolution After Heating (Labrasol ® 100%, M4N 80 mg/mL, heating at 60° C.) | Dissolution After Heating (Labrasol ® 100%, M4N 90 mg/mL, heating at 60° C.) | Dissolution After Heating (Labrasol ® 100%, M4N 100 mg/mL, heating at 60° C.) | Dissolution After Heating (Labrasol ® 100%, M4N 200 mg/mL, heating at 60° C.)
Suspension: Dissolution After Cool Down [1] | Dissolution After Cool Down [2] | Dissolution After Cool Down [3] | Dissolution After Cool Down [4] | Dissolution After Cool Down [5] | Dissolution After Cool Down [6] | Dissolution After Cool Down [7] | Dissolution After Cool Down [8] | Dissolution After Cool Down [9] | Dissolution After Cool Down [10] | Dissolution After Cool Down [11] | Dissolution After Cool Down [12] | Dissolution After Cool Down [13] | Dissolution After Cool Down [14] | Dissolution After Cool Down [15] | Dissolution After Cool Down [16] | Dissolution After Cool Down [17] | Dissolution After Cool Down [18]
suspension: Dissolution After Cool Down (Labrasol ® 100%, M4N 90 mg/mL) | Dissolution After Cool Down (Labrasol ® 100%, M4N 100 mg/mL) | Dissolution After Cool Down (Labrasol ® 100%, M4N 200 mg/mL)
N: Dissolution After Rotation [1] | Dissolution After Rotation [2] | Dissolution After Rotation [3] | Dissolution After Rotation [4] | Dissolution After Rotation [5] | Dissolution After Rotation [6] | Dissolution After Rotation [7] | Dissolution After Rotation [8] | Dissolution After Rotation [9] | Dissolution After Rotation [10] | Dissolution After Rotation [11] | Dissolution After Rotation [12] | Dissolution After Rotation [13] | Dissolution After Rotation [14] | Dissolution After Rotation [15] | Dissolution After Rotation [16] | Dissolution After Rotation [17] | Dissolution After Rotation [18] | Dissolution After Heating [19] | Dissolution After Rotation [19] | Dissolution After Rotation (Labrafil ® 100%, M4N 60 mg/mL) | Dissolution After Rotation (Labrafil ® 100%, M4N 200 mg/mL) | Dissolution After Rotation (Labrasol ® 100%, M4N 50 mg/mL) | Dissolution After Rotation (Labrasol ® 100%, M4N 60 mg/mL) | Dissolution After Rotation (Labrasol ® 100%, M4N 70 mg/mL) | Dissolution After Rotation (Labrasol ® 100%, M4N 80 mg/mL) | Dissolution After Rotation (Labrasol ® 100%, M4N 90 mg/mL) | Dissolution After Rotation (Labrasol ® 100%, M4N 100 mg/mL) | Dissolution After Rotation (Labrasol ® 100%, M4N 200 mg/mL) | Dissolution After Rotation (M4N 1 mg/mL in 1% CMC (High Viscosity)) | Dissolution After Rotation (M4N 1 mg/mL in 4% CMC (Low Viscosity)) | Dissolution After Rotation (M4N 1 mg/mL in Corn Oil)
Creamy: Dissolution After Cool Down (Labrafil ® 100%, M4N 200 mg/mL)

From patent publication US20090022803A1, “Oral Formulations For Delivery of Catecholic Butanes Including Ndga Compounds” (priority 2005, published 2009)
